Measurements reported in publication PMC4115656.

The chains behind the UniProt entries cited, without tags or fusion partners. Where a name states a change or a piece, a line headed by the entry shows the natural chain unless it says otherwise.
UniProt Q13153: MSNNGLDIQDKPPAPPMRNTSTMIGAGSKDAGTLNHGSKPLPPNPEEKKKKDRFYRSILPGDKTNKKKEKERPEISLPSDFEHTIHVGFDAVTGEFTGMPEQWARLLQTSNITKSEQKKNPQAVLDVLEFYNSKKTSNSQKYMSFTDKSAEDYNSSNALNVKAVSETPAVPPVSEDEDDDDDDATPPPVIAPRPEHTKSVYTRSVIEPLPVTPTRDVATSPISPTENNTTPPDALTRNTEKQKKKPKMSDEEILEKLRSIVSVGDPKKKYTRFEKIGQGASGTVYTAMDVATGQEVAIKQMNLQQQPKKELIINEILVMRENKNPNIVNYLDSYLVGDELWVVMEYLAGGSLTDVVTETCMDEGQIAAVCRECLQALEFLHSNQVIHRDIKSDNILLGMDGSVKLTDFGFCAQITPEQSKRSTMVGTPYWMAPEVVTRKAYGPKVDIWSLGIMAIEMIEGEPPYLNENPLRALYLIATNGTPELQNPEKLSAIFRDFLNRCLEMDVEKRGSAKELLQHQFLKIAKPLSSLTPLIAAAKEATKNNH
UniProt P60766: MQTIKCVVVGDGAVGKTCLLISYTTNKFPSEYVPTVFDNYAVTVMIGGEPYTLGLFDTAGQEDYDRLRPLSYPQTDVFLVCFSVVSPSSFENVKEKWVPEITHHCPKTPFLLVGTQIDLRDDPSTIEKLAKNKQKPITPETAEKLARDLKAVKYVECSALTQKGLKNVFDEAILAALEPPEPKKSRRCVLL

Target: GST protein fused to CRIB domain from human PAK1B (human) (UniProt Q13153)
Assay: pull-down; purified GST-CRIB on glutathione-Sepharose beads incubated with hippocampal lysates of Cdc42f/f (control) and Cdc42f/f: Camk2a-Cre mice, 2 hr at 4°C; lysis buffer 150 mM NaCl, 25 mM HEPES pH 7.4, 1 mM EDTA, 0.5 mM EGTA, 0.5% NP-40; bound proteins detected by western blot for Cdc42 and Rac1; only the target purified

Question: For Cdc42 (from UniProt P60766 1-191), which binding is on record?
Answer: binds

Results are given in words; binding and its absence hold for the method and conditions named. Binding seen in cells or lysates may run through a third protein. Binding can be weak; no strength is given.
